## Library screening results

Source: ChEMBL document CHEMBL3988442, “University of Dundee, Small-Polar-MMV Screening Library” (2021).

A: 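Whole-cell assay for inhibitors of Mycobacterium tuberculosis growth, labelled Cornell in the record; the read-out is not stated. The concentration is filed as 10 mM, unlikely as a test dose, so the dose is not known. Higher means stronger inhibition (inferred from two other growth screens of the library). About 53,000 compounds were tested under these conditions; 1.7% (about 900) showed 50% or more at least once.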
B: 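Assay on Mycobacterium tuberculosis, filed only as a heat shock assay from Cornell; the read-out is not stated. The concentration is filed as 10 mM, unlikely as a test dose, so the dose is not known. The record gives no direction; compounds that gave an IC50 in retests scored well above the rest, so higher reads as stronger inhibition. Size under these conditions: about 69,000 compounds, about 930 of them at 50% or above in at least one test.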

The filed quantity is “Percent Effect” (%).
The controls that fix the scale are not given in the record; negative values are as filed.
Compounds were drawn at random from those tested, without regard to their results.
A dash means the value is not listed here; it may have been measured.

structure,A,B
COc1ccc(Nc2nc(N)c(C(C)=O)s2)cc1Cl,36.9%,7.247%
CCc1c(C)nc(N)nc1NCCSCc1[nH]cnc1C,-,-15.25%
CCc1nc(C2CCCN2C(=O)c2ccc(N(C)C)nn2)no1 (stereo not given),-,-22.35%
O=C(O)C(F)(F)F.[H][C@@]12COC[C@]1(CNC(=O)c1ccco1)CN(Cc1cc(C)on1)C2,21.13%,-3.372%
CN(CC1Cc2ccccc2CN1C)C(=O)CSc1nccn1C (stereo not given),10.33%,-8.615%
Cc1nc2cc(C(=O)N3CCCC(n4cncn4)C3)ccc2n1C (stereo not given),-12.54%,-9.271%
CO[C@H]1CN(C(C)C)C[C@@H]1NC(=O)c1cc(-c2ccccc2O)n[nH]1,-,-5.097%
COc1cccc(CNC(=O)CCNS(=O)(=O)c2ccc(C)cc2)c1,5.719%,-7.517%
O=S(=O)(c1ccccc1)N1CCC2(CCCN2CC2CCCC2)C1 (stereo not given),29.56%,22.97%
Cc1ncc(CN(C)C2CCCN(Cc3noc(C4CC4)n3)C2)s1 (stereo not given),-,16.41%
CCn1cc(CN2CCCN(C(=O)c3ccoc3C)CC2)cn1,-,-4.921%
COCc1nc(N(C)C)ncc1C(=O)OC,-,-3.353%
Cc1cccc(C)c1OCCNC(=O)CNC(=O)C1CCCC1,-9.582%,-22.42%
O=C(O)C(F)(F)F.[H][C@@]12CCN(CCOC)C(=O)[C@@]1([H])CN(c1cc(OC)ncn1)C2,-40.5%,-33.23%
COCCN1CCN(Cc2cnc(C)nc2)CC1,-75.19%,-20.93%
Cl.Cl.O=c1[nH]c2ncccc2n1C1CCNCC1,15.55%,20.71%
NC(=O)CN1CCC(c2csc(Nc3cnccn3)n2)CC1,53.63%,-13.81%
Cc1cccc(C(=O)N2CCn3c(CN4CCN(C)CC4)cnc3C2)n1,21.38%,2.408%
COc1ccc(CN(C)Cc2cccc(C#N)c2)c(OC)c1,-,-27.31%
CN(C)c1ccc(NC(=O)c2cccc(N(C)C)c2)nc1,-37.84%,-31.37%
Cc1noc(NCc2cn(C)nc2-c2ccncc2)n1,10.16%,2.02%
Cc1nc(C2CCCN2C(=O)c2ccccc2)ncc1C(N)=O (stereo not given),-,-0.8948%
O=C(NC1CCS(=O)(=O)C1)c1ccc(-c2ccc(F)cc2)s1 (stereo not given),1.664%,15.28%
CN(CCc1nccs1)C(=O)CC1(O)CCCCC1,19.59%,11.45%
CCc1c(O)nc(SCC(=O)Nc2ccccc2)n(C(C)CC)c1=O (stereo not given),65.15%,13.07%
Cc1cccc(CSc2ncc(Cl)c(C(=O)O)n2)c1,18.12%,-0.6753%
COc1ccc2nc(C3CC3)cc(C(=O)NCc3noc(C)n3)c2c1,23.03%,-17.44%
Cc1cc(C(=O)N2CCCC(C)C2)ccc1NCc1nc(C(C)C)no1 (stereo not given),13.49%,-4.566%
COc1ncc(CN2CC[C@@](C)(O)[C@H](Oc3cccc(F)c3)C2)cn1,-,11.62%
CN1CCOC(CNC(=O)CCCOc2cccc(F)c2)C1 (stereo not given),-,1.356%
COCC(C)NC(=O)c1cc(Br)c2c(c1)OCCO2 (stereo not given),-,-16.57%
CN(CC(=O)NC(Cc1ccsc1)c1cccnc1)Cc1cccnc1.Cl (stereo not given),9.786%,-20.58%
O=C(Nc1ccccc1OCCc1ccccn1)NC1CCOCC1,-20.67%,-53.38%
Cc1nnsc1-c1nnc2sc(C(C)C)nn12,30.38%,9.074%
O=C(NCc1ccnc(O)c1)NCC1CCCC1,-,28.44%
CCn1cc(CN2CCCC(c3[nH]ncc3-c3ccc(C)cc3)C2)cn1 (stereo not given),10.65%,-1.381%
Cc1cc(N2CCN(Cc3cn(C)nc3C)CC2)cc(C2CCCN2)n1.Cl (stereo not given),10.93%,-11.47%
Cc1ccc(NC(=O)NCC(c2cnn(C)c2)N(C)C)c(C)c1 (stereo not given),-,2.771%
COc1ccc(OC)c(C2C3=C(COC3=O)Nc3[nH]nc(C)c32)c1 (stereo not given),-,-8.518%
Cc1n[nH]c2c1C(c1cc(F)cc(F)c1)SCC(=O)N2 (stereo not given),16.33%,13.19%
Cc1ccccc1N1CCN(C(=O)c2cnc(N(C)C)nc2C)C(C)C1 (stereo not given),-,19.22%
CCC(CC)c1cc(C(=O)N2CCN(C(C)C(N)=O)CC2)on1 (stereo not given),-12.27%,3.294%
NC(=O)Cc1ccc(NC(=O)C2CCOCC2)cc1,37.03%,27.21%
O=C(c1cccnc1N1CCCC1)N1CCOC(c2ccccc2)C1 (stereo not given),31.5%,-6.02%
[H][C@@]12CCN(Cc3ccc(C)o3)C[C@@]1([H])O[C@@H](c1nc(C3CC3)cs1)C2,67.24%,-13.14%
NC(=O)CN1CCCC(C(=O)N2CCC(O)(c3ccccc3)CC2)C1 (stereo not given),0.994%,-10.55%
CC1(C(=O)N2CCOCC2)CN(Cc2cccnc2)CCO1 (stereo not given),3.547%,-8.397%
Cc1cnn(CC2CN(CCS(=O)(=O)C(F)(F)F)CCO2)c1 (stereo not given),-6.361%,85.56%
[H][C@@]12CS(=O)(=O)C[C@]1([H])N(Cc1ccc(CCC)o1)CCN2C(=O)N(C)C,-25.22%,30.12%
CCOC(=O)N1CCN(c2nc(NCCO)c3ccccc3n2)CC1,12.77%,-8.25%
CN1CCC2(CC1)C(=O)N(c1cccnc1)c1ccc(F)cc12.Cl,25.63%,13.96%
CSc1ncnc(NCc2ccccc2F)c1C#N,6.185%,-13.78%
[H][C@@]12CCN(C(=O)c3ccc(S(=O)(=O)NC4CCC4)cc3)[C@]1([H])CNC2,6.777%,-19.14%
COc1cc(CNCc2ccc(C(C)O)cc2)cc2c1OCO2 (stereo not given),3.367%,-19.76%
Cc1ncc(CN2CCC3(CCCN(CC4CCC4)C3)C2)cn1 (stereo not given),-42.18%,9.292%
O=C(NCc1cc(F)ccc1F)Nc1ccn(CC(F)F)n1,38.59%,-4.195%
FC(F)(F)CCc1ccnc(N2CCN(CCc3ccncc3)CC2)n1,36.61%,-14.26%
CNc1cncc(C2CCCN2C(=O)c2ccc3nc(C)[nH]c3c2)n1 (stereo not given),-,29.71%
Cc1ncc2c(c1CNC(=O)C1(c3ccc(F)cc3)CC1)CCNC2,25.62%,-16.51%
O=C(O)C(F)(F)F.[H][C@@]12CO[C@H](CNS(C)(=O)=O)[C@]1([H])CCN(CCc1ccccc1)C2,1.676%,40.93%

The last 6 entries again:

{"structure": "Cc1ncc(CN2CCC3(CCCN(CC4CCC4)C3)C2)cn1", "stereo": "stereo not given", "A": -42.18, "B": 9.292}
{"structure": "O=C(NCc1cc(F)ccc1F)Nc1ccn(CC(F)F)n1", "A": 38.59, "B": -4.195}
{"structure": "FC(F)(F)CCc1ccnc(N2CCN(CCc3ccncc3)CC2)n1", "A": 36.61, "B": -14.26}
{"structure": "CNc1cncc(C2CCCN2C(=O)c2ccc3nc(C)[nH]c3c2)n1", "stereo": "stereo not given", "B": 29.71}
{"structure": "Cc1ncc2c(c1CNC(=O)C1(c3ccc(F)cc3)CC1)CCNC2", "A": 25.62, "B": -16.51}
{"structure": "O=C(O)C(F)(F)F.[H][C@@]12CO[C@H](CNS(C)(=O)=O)[C@]1([H])CCN(CCc1ccccc1)C2", "A": 1.676, "B": 40.93}